Data as given in patent US20250283871A1, “COMPOSITIONS AND METHODS FOR MODULATING THE INTERACTION BETWEEN SS18-SSX FUSION ONCOPROTEIN AND NUCLEOSOMES” (Dana-Farber Cancer Institute, Inc., priority 2020, published 2025).

B1: MAN1B1 (protein, UniProt Q9UKM7 1-699, looked up)
Endoplasmic reticulum …: MAACEGRRSGALGSSQSDFLTPPVGGAPWAVATTVVMYPPPPPPPHRDFISVTLSFGENYDNSKSWRRRSCWRKWKQLSRLQRNMILFLLAFLLFCGLLFYINLADHWKALAFRLEEEQKMRPEIAGLKPANPPVLPAPQKADTDPENLPEISSQKTQRHIQRGPPHLQIRPPSQDLKDGTQEEATKRQEAPVDPRPEGDPQRTVISWRGAVIEPEQGTELPSRRAEVPTKPPLPPARTQGTPVHLNYRQKGVIDVFLHAWKGYRKFAWGHDELKPVSRSFSEWFGLGLTLIDALDTMWILGLRKEFEEARKWVSKKLHFEKDVDVNLFESTIRILGGLLSAYHLSGDSLFLRKAEDFGNRLMPAFRTPSKIPYSDVNIGTGVAHPPRWTSDSTVAEVTSIQLEFRELSRLTGDKKFQEAVEKVTQHIHGLSGKKDGLVPMFINTHSGLFTHLGVFTLGARADSYYEYLLKQWIQGGKQETQLLEDYVEAIEGVRTHLLRHSEPSKLTFVGELAHGRFSAKMDHLVCFLPGTLALGVYHGLPASHMELAQELMETCYQMNRQMETGLSPEIVHFNLYPQPGRRDVEVKPADRHNLLRPETVESLFYLYRVTGDRKYQDWGWEILQSFSRFTRVPSGGYSSINNVQDPQKPEPRDKMESFFLGETLKYLFLLFSDDPNLLSLDAYVFNTEAHPLPIWTPA
B2: ALDH1L2 (protein)
chain: MLRRGSQALRRFSTGRVYFKNKLKLALIGQSLFGQEVYSHLRKEGHRVVGVFTVPDKDGKADPLALAAEKDGTPVFKLPKWRVKGKTIKEVAEAYRSVGAELNVLPFCTQFIPMDIIDSPKHGSIIYHPSILPRHRGASAINWTLIMGDKKAGFSVFWADDGLDTGPILLQRSCDVEPNDTVDALYNRFLFPEGIKAMVEAVQLIADGKAPRIPQPEEGATYEGIQKKENAEISWDQSAEVLHNWIRGHDKVPGAWTEINGQMVTFYGSTLLNSSVPPGEPLEIKGAKKPGLVTKNGLVLFGNDGKALTVRNLQFEDGKMIPASQYFSTGETSVVELTAEEVKVAETIKVIWAGILSNVPIIEDSTDFFKSGASSMDVARLVEEIRQKCGGLQLQNEDVYMATKFEGFIQKVVRKLRGEDQEVELVVDYISKEVNEIMVKMPYQCFINGQFTDADDGKTYDTINPTDGSTICKVSYASLADVDKAVAAAKDAFENGEWGRMNARERGRLMYRLADLLEENQEELATIEALDSGAVYTLALKTHIGMSVQTFRYFAGWCDKIQGSTIPINQARPNRNLTFTKKEPLGVCAIIIPWNYPLMMLAWKSAACLAAGNTLVLKPAQVTPLTALKFAELSVKAGFPKGVINIIPGSGGIAGQRLSEHPDIRKLGFTGSTPIGKQIMKSCAVSNLKKVSLELGGKSPLIIFNDCELDKAVRMGMGAVFFNKGENCIAAGRLFVEESIHDEFVTRVVEEIKKMKIGDPLDRSTDHGPQNHKAHLEKLLQYCETGVKEGATLVYGGRQVQRPGFFMEPTVFTDVEDYMYLAKEESFGPIMVISKFQNGDIDGVLQRANSTEYGLASGVFTRDINKAMYVSEKLEAGTVFINTYNKTDVAAPFGGVKQSGFGKDLGEEALNEYLKTKTVTLEY
B3: NPEPPS (protein, UniProt P55786 1-919, looked up)
Puromycin-sensitive …: MWLAAAAPSLARRLLFLGPPPPPLLLLVFSRSSRRRLHSLGLAAMPEKRPFERLPADVSPINYSLCLKPDLLDFTFEGKLEAAAQVRQATNQIVMNCADIDIITASYAPEGDEEIHATGFNYQNEDEKVTLSFPSTLQTGTGTLKIDFVGELNDKMKGFYRSKYTTPSGEVRYAAVTQFEATDARRAFPCWDEPAIKATFDISLVVPKDRVALSNMNVIDRKPYPDDENLVEVKFARTPVMSTYLVAFVVGEYDFVETRSKDGVCVRVYTPVGKAEQGKFALEVAAKTLPFYKDYFNVPYPLPKIDLIAIADFAAGAMENWGLVTYRETALLIDPKNSCSSSRQWVALVVGHELAHQWFGNLVTMEWWTHLWLNEGFASWIEYLCVDHCFPEYDIWTQFVSADYTRAQELDALDNSHPIEVSVGHPSEVDEIFDAISYSKGASVIRMLHDYIGDKDFKKGMNMYLTKFQQKNAATEDLWESLENASGKPIAAVMNTWTKQMGFPLIYVEAEQVEDDRLLRLSQKKFCAGGSYVGEDCPQWMVPITISTSEDPNQAKLKILMDKPEMNVVLKNVKPDQWVKLNLGTVGFYRTQYSSAMLESLLPGIRDLSLPPVDRLGLQNDLFSLARAGIISTVEVLKVMEAFVNEPNYTVWSDLSCNLGILSTLLSHTDFYEEIQEFVKDVFSPIGERLGWDPKPGEGHLDALLRGLVLGKLGKAGHKATLEEARRRFKDHVEGKQILSADLRSPVYLTVLKHGDGTTLDIMLKLHKQADMQEEKNRIERVLGATLLPDLIQKVLTFALSEEVRPQDTVSVIGGVAGGSKHGRKAAWKFIKDNWEELYNRYQGGFLISRLIKLSVEGFAVDKMAGEVKAFFESHPAPSAERTIQQCCENILLNAAWLKRDAESIHQYLLQRKASPPTV
B4: ARMCX3 (protein, UniProt Q9UH62 1-379, looked up)
Armadillo repeat-containing …: MGYARKVGWVTAGLVIGAGACYCIYRLTRGRKQNKEKMAEGGSGDVDDAGDCSGARYNDWSDDDDDSNESKSIVWYPPWARIGTEAGTRARARARARATRARRAVQKRASPNSDDTVLSPQELQKVLCLVEMSEKPYILEAALIALGNNAAYAFNRDIIRDLGGLPIVAKILNTRDPIVKEKALIVLNNLSVNAENQRRLKVYMNQVCDDTITSRLNSSVQLAGLRLLTNMTVTNEYQHMLANSISDFFRLFSAGNEETKLQVLKLLLNLAENPAMTRELLRAQVPSSLGSLFNKKENKEVILKLLVIFENINDNFKWEENEPTQNQFGEGSLFFFLKEFQVCADKVLGIESHHDFLVKVKVGKFMAKLAEHMFPKSQE
B5: DDOST (protein, UniProt P39656 43-456, looked up)
Dolichyl-diphosphooligosacchar …: SGPRTLVLLDNLNVRETHSLFFRSLKDRGFELTFKTADDPSLSLIKYGEFLYDNLIIFSPSVEDFGGNINVETISAFIDGGGSVLVAASSDIGDPLRELGSECGIEFDEEKTAVIDHHNYDISDLGQHTLIVADTENLLKAPTIVGKSSLNPILFRGVGMVADPDNPLVLDILTGSSTSYSFFPDKPITQYPHAVGKNTLLIAGLQARNNARVIFSGSLDFFSDSFFNSAVQKAAPGSQRYSQTGNYELAVALSRWVFKEEGVLRVGPVSHHRVGETAPPNAYTVTDLVEYSIVIQQLSNGKWVPFDGDDIQLEFVRIDPFVRTFLKKKGGKYSVQFKLPDVYGVFQFKVDYNRLGYTHLYSSTQVSVRPLQHTQYERFIPSAYPYYASAFSMMLGLFIFSIVFLHMKEKEKSD

tested on: BAF complex subunits and histone proteins; assay: Mass spectrometry proteomics of purified HA-SS18 WT and HA-SS18-SSX1 complexes (Tables 5A-5E); set-up: species or system human; settings: HA-SS18SSX1 purification, NE (soluble nuclear extract) fraction, HEK-293T; peptides per identified protein

Molecule | Total (total peptides) | Unique (unique peptides)
B1 | 5 | 5
B2 | 5 | 5
B3 | 5 | 5
B4 | 5 | 5
B5 | 5 | 5

same assay, conditions: HA-SS18WT_NE_peptides: HA-SS18 WT complexes purified from nuclear extract (NE), HEK-293T; label = protein identified (Gene Symbol)

Molecule | Total (peptides) | Unique (peptides)
B1 | 3 | 3
B2 | 6 | 6
B3 | 4 | 4
B5 | 8 | 7

same assay, conditions: HA-SS18WT_NE_peptides: proteins co-purified with HA-SS18 WT from nuclear extract (NE), HEK-293T

Molecule | Total (peptides) | Unique (peptides)
B4 | 1 | 1
